Consider 4 compounds from PubChem BioAssay AID248 (DTP/NCI, 2004).

The subject of the experiment is L1210 leukemia ip in BDF1 mice, survival T/C. Put plainly: NCI In Vivo Anticancer Drug Screen. Data for tumor model L1210 Leukemia (intraperitoneal) in B6D2F1 (BDF1) mice. Particulars: T/C endpoint: mean survival time, higher T/C = longer survival.
The mark [1] stands for this setting: dose: 0.25 mg/kg/injection, schedule: Q01DX Z (ip), vehicle: saline.
Setting [2] is: dose: 0.5 mg/kg/injection, schedule: Q01DX Z (ip), vehicle: saline.
Where [3] appears, read: dose: 4.0 mg/kg/injection, schedule: Q01DX001 (ip), vehicle: saline.
The mark [4] stands for this setting: dose: 8.0 mg/kg/injection, schedule: Q01DX001 (ip), vehicle: saline.

The list does not hold the whole screen: it is rich in T/C values a quarter to a half above the control, in often repeated tests (any T/C) and in doses without a T/C. Further doses and runs are listed elsewhere. T/C gives the treated animals as a percentage of the vehicle group. Some doses have a count of surviving animals in place of a T/C: the source holds a T/C of zero for them, seemingly a mark for toxic or unscored doses. Some doses without a T/C left all or most animals alive at the check, yet need not have been tolerated: survival well below the control is almost never listed, so the zero probably covers shortened survival too. Survivors were counted at the toxicity check, usually on the fifth day, unless a day is given; later deaths do not show. Schedule codes are those of the source, taken here to give the interval after Q, in days (D) or hours (H), and the number of doses after X. Some schedules carry Z or #; the key to these is not given. Some entries were tested several times; the results are listed from low to high. Where survival is the endpoint, this PubChem deposit counts one and a half times the control or more as active, and values a quarter to a half above the control carry no call in these data; other NCI protocols may use other cut-offs. Brackets with × count equal records among those shown. Some T/C values carry the count of animals alive at the toxicity check (mostly the fifth day); without a count, all were alive then.

Regarding `Nc1nc(N)c2nc(CNc3ccc(C(=O)NC(CCC(=O)O)C(=O)O)cc3)cnc2n1` (configuration not stated), the T/C runs as follows: (dose: 0.02 mg/kg/injection, schedule: Q01DX Z (ip), vehicle: saline) 141 % of control; (dose: 0.05 mg/kg/injection, schedule: Q01DX009 (ip), vehicle: saline) 94 (3×) and 98 % of control; (dose: 0.05 mg/kg/injection, schedule: Q01DX Z (sc), vehicle: saline) 139 % of control; (dose: 0.06 mg/kg/injection, schedule: Q01DX Z (ip), vehicle: saline) 137 and 144 % of control; (dose: 0.1 mg/kg/injection, schedule: Q01DX006 (iv), vehicle: saline) 129 % of control; (dose: 0.1 mg/kg/injection, schedule: Q01DX009 (ip), vehicle: saline) 88, 92, 97, 108 % of control. Also, the T/C is 127 % of control (dose: 0.1 mg/kg/injection, schedule: Q01DX010 (ip), vehicle: other); 141 % of control (dose: 0.1 mg/kg/injection, schedule: Q01DX Z (ip), vehicle: saline); 127 % of control (2×) (dose: 0.1 mg/kg/injection, schedule: Q01DX Z (sc), vehicle: saline); 145 % of control (dose: 0.2 mg/kg/injection, schedule: Q01DX006 (iv), vehicle: saline); 94, 97, 101, 108 % of control (dose: 0.2 mg/kg/injection, schedule: Q01DX009 (ip), vehicle: saline); 133 % of control under setting [1]. In addition, the T/C was 94, 96, 105, 125 % of control (dose: 0.4 mg/kg/injection, schedule: Q01DX009 (ip), vehicle: saline); 86 % of control [4 of 6 alive] under setting [2]; 125 % of control (dose: 1.0 mg/kg/injection, schedule: Q01DX001 (ip), vehicle: saline); 106, 121, 138 % of control under setting [3]; 98, 120, 132 % of control under setting [4]. For the same compound, the survivor count by setting is: under setting [1], 2 of 6; (dose: 0.4 mg/kg/injection, schedule: Q01DX010 (ip), vehicle: other) 6 of 6; (dose: 0.5 mg/kg/injection, schedule: Q01DX006 (iv), vehicle: saline) 3 of 6; (dose: 0.5 mg/kg/injection, schedule: Q01DX Z (im), vehicle: saline) 3 of 6; under setting [2], 2 of 6, 3 of 6, 4 of 6; (dose: 1.0 mg/kg/injection, schedule: Q01DX Z (ip), vehicle: saline) 3 of 6. In addition, the survivor count by setting is: (dose: 1.0 mg/kg/injection, schedule: Q01DX Z (oral), vehicle: saline) 4 of 6; (dose: 1.0 mg/kg/injection, schedule: Q01DX Z (sc), vehicle: saline) 3 of 6; (dose: 2.0 mg/kg/injection, schedule: Q01DX Z (oral), vehicle: saline) 1 of 6; under setting [3], 3 of 6; under setting [4], 3 of 6; (dose: 16.0 mg/kg/injection, schedule: Q01DX001 (ip), vehicle: saline) 3 of 6. In addition, the survivor count is, setting by setting: (dose: 32.0 mg/kg/injection, schedule: Q01DX001 (ip), vehicle: saline) 0 of 6; (dose: 128.0 mg/kg/injection, schedule: Q01DX001 (ip), vehicle: saline) 6 of 6; (dose: 256.0 mg/kg/injection, schedule: Q01DX001 (ip), vehicle: saline) 6 of 6; (dose: 512.0 mg/kg/injection, schedule: Q01DX001 (ip), vehicle: saline) 6 of 6; (dose: 1024.0 mg/kg/injection, schedule: Q01DX001 (ip), vehicle: saline) 6 of 6.
Regarding `CN1CC=C(/C=C/c2cccc3ccccc23)CC1`, the survivor count runs as follows: (dose: 150.0 mg/kg/injection, schedule: Q01DX009 (ip), vehicle: saline) 2 of 6; (dose: 200.0 mg/kg/injection, schedule: Q04DX003 (ip), vehicle: saline) 0 of 6; (dose: 225.0 mg/kg/injection, schedule: Q01DX009 (ip), vehicle: saline) 0 of 6; (dose: 335.0 mg/kg/injection, schedule: Q01DX009 (ip), vehicle: saline) 0 of 6; (dose: 400.0 mg/kg/injection, schedule: Q04DX003 (ip), vehicle: saline) 0 of 6.
Consider `NC(=S)N/N=C/c1ccc(F)cc1`, for which the survivor count reads like this: (dose: 240.0 mg/kg/injection, schedule: Q01DX Z (oral), vehicle: methylcellulose (MC)) 0 of 6; (dose: 480.0 mg/kg/injection, schedule: Q01DX Z (oral), vehicle: methylcellulose (MC)) 0 of 6.
With `IC1=CC2CCC(C1)C2` (configuration not stated), the survivor count (dose: 400.0 mg/kg/injection, schedule: Q01DX009 (ip), vehicle: acetone) was 1 of 6.
